Taken from: PubChem BioAssay AID1259254 (NCATS, 2017)

Screen: 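Gene knock-downs that lead to re-replication, shown by excess G2 DNA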 (primary screen)
System: human HCT116 colorectal cancer cells
Reagents: single siRNA against human genes
Timing: 3 days
Measured: 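Imaged Hoechst DNA stain sorts each cell into a cycle phase by DNA amount; per plate, G2 fraction set to 0% for non-targeting and 100% for GMNN siRNA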
Scale: G2 robust z-score: higher = more G2 cells, more excess DNA replication
Active means: 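An siRNA counts as active if its G2 robust z-score lies at least 5 MADs above the screen median; here such calls match roughly 38% of GMNN control or more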
In all, the deposit lists about 59,000 reagents; shown is a part drawn at random. Of all reagents, about 1,550 (2.6%) got an active call. 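G2 share is only a proxy for re-replication; each gene was hit by three separate siRNAs, and active genes were retested.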 Reagents against one gene are numbered here. Further read-outs or replicates are left out here. Reagent sequences are not shown. The record does not give: the amount of reagent.

G2 robust z-score, by gene and reagent
LMAN2L (GeneID 81562): #1 5.92 active; #2 1.4 inactive; #3 -0.707 inactive
LINC01913 (GeneID 388942): #1 -0.114 inactive; #2 0.127 inactive; #3 -0.671 inactive
THBS1 (GeneID 7057): #1 -0.716 inactive; #2 -0.354 inactive; #3 7.77 active
CYP4F11 (GeneID 57834): #1 -0.939 inactive; #2 -1.16 inactive; #3 3.17 inactive
IRS2 (GeneID 8660): #1 1.88 inactive; #2 0.0715 inactive; #3 0.244 inactive
OLFML1 (GeneID 283298): #1 -0.317 inactive; #2 -1.28 inactive; #3 3.35 inactive
TSPAN31 (GeneID 6302): #1 0.321 inactive; #2 -0.769 inactive; #3 0.78 inactive
GXYLT1 (GeneID 283464): #1 0.307 inactive; #2 0.691 inactive; #3 0.175 inactive
ZNF257 (GeneID 113835): #1 0.0891 inactive; #2 0.0893 inactive; #3 0.497 inactive
MBNL2 (GeneID 10150): #1 -0.0401 inactive; #2 0.243 inactive; #3 0.0111 inactive
SRRM1 (GeneID 10250): #1 -0.0221 inactive; #2 0.359 inactive; #3 -1.09 inactive
IFFO1 (GeneID 25900): #1 -0.647 inactive; #2 0.889 inactive; #3 -0.689 inactive
TSSK3 (GeneID 81629): #1 -0.137 inactive; #2 -0.169 inactive; #3 -0.0244 inactive
TOP2B (GeneID 7155): #1 -0.131 inactive; #2 0.126 inactive; #3 1.03 inactive

Active calls (from the list above):
G2 robust z-score, by gene and reagent
LMAN2L (GeneID 81562): #1 5.92 active
THBS1 (GeneID 7057): #3 7.77 active

Next results follow:
G2 robust z-score, by gene and reagent
LMAN1 (GeneID 3998): #1 3.52 inactive; #2 -0.0176 inactive; #3 0.243 inactive
TCF7L2 (GeneID 6934): #1 1.74 inactive; #2 -0.539 inactive; #3 -1.31 inactive
AQP8 (GeneID 343): #1 -1.63 inactive; #2 -0.267 inactive; #3 0.468 inactive
TUBGCP3 (GeneID 10426): #1 0.61 inactive; #2 1.51 inactive; #3 2.42 inactive
TSPAN4 (GeneID 7106): #1 1.2 inactive; #2 1.82 inactive; #3 0.328 inactive
SPAG6 (GeneID 9576): #1 -0.25 inactive; #2 4.42 inactive; #3 0.83 inactive
TRHDE (GeneID 29953): #1 0.951 inactive; #2 -0.957 inactive; #3 -0.794 inactive
DCDC1 (GeneID 341019): #1 0.705 inactive; #2 -0.93 inactive; #3 -0.264 inactive; #4 0.069 inactive; #5 0.254 inactive; #6 -0.611 inactive
SERPINA1 (GeneID 5265): #1 -0.155 inactive; #2 1.1 inactive; #3 -0.831 inactive
IP6K2 (GeneID 51447): #1 -0.265 inactive; #2 3.48 inactive; #3 -1.13 inactive
CLPSL1 (GeneID 340204): #1 0.114 inactive; #2 5.67 active; #3 -0.226 inactive
SLC4A7 (GeneID 9497): #1 0.0524 inactive; #2 -1.02 inactive; #3 -0.764 inactive
CENPL (GeneID 91687): #1 -0.593 inactive; #2 0.194 inactive; #3 -0.41 inactive; #4 0.629 inactive; #5 -0.891 inactive; #6 -0.0913 inactive
